Nine sequences from article PMC4703863 can be followed below.

The chains behind the UniProt entries cited, without tags or fusion partners. Where a name states a change or a piece, a line headed by the entry shows the natural chain unless it says otherwise.
UniProt Q9GZX7: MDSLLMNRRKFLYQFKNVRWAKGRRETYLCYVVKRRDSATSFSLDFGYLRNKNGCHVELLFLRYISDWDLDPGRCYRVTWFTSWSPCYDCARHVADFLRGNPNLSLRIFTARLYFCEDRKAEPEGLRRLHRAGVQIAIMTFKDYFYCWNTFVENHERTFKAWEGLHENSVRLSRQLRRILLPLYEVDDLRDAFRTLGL

For at least one entry, the source does not settle the construct or the ends of the probe. For some of these results: No signal at the amounts used counts as a negative. For some of these results: At least one verdict was read from the data and is not stated in words by the source.

The target of data set [1] is GST-AID-His6 (Cy5-labelled) (UniProt Q9GZX7). Briefly: smFRET. The note with it: Transcription-scanning buffer: 40 mM Tris-HCl pH 7.9, 5 mM Mg2+, 60 mM Na+, 0.2 mg/ml BSA, 2 mM Trolox, PCA/PCD, 0.5-5 nM RNAP, recombinant protein, protein details: N-terminal GST, C-terminal His6, Cy5-OEG-trisNTA.
The subject of data set [2] is GST-AID-His6 (Cy5-labelled) + His6-T7 RNA polymerase. Briefly: smFRET co-localization. The conditions noted are these: Cy3-RNAP and Cy5-AID, unlabelled DNA, no direct AID-RNAP contact; Transcription-scanning buffer: 40 mM Tris-HCl pH 7.9, 5 mM Mg2+, 60 mM Na+, 0.2 mg/ml BSA, 2 mM Trolox, PCA/PCD; 0.5-5 nM RNAP, 20 nM AID; recombinant protein; label: 5'-biotin strand 1, 5'-Cy3 strand 2.

Data set [3] has the same test system. As to the kind of experiment: smFRET. The conditions noted are these: Transcription-scanning buffer: 40 mM Tris-HCl pH 7.9, 5 mM Mg2+, 60 mM Na+, 0.2 mg/ml BSA, 2 mM Trolox, PCA/PCD, 0.5-5 nM RNAP, 20 nM AID, recombinant protein, label: 5'-biotin strand 1, 5'-Cy3 strand 2.
[4] abbreviates: mean residence ~4 min, 20 nM …, label: 5'-Cy3 and 3'-biotin on anchor strand.

For “CAGAGATGCAGCCGTCCGTATCCGTATTGTAGAAAAGGGGAAAGCAAAGAGGAAAGGTGAGGAGGT (double strand) [No-promoter dsDNA 66-mer]”, the binding result in data set [1] (RNAP present, 20 nM AID, label: 5'-biotin strand 1, 5'-Cy3 strand 2) is recorded as “no binding”.
With “CCCTACATCCATTCCTCGCGTTTTTTTTTTTTTTTAACAGCAACTTTTTTTTTTTTTTTTTTTTTTTTTTTTGACGACGACTTTTTTTTTTT / CGCGAGGAATGGATGTAGGG [pdT 5' (WRC)3 3' (GAC)3]”, in data set [1] (setting [4]), the binding result is reported as “binds”.
As to “CCCTACATCCATTCCTCGCGTTTTTTTTTTTTTTTAACTTTTTTTTTTTTTTTTTTTTTTTTTTTTTTTTTTTTTTTTTTTTTTTTTTTTTT / CGCGAGGAATGGATGTAGGG [pdT 5' AAC (hot motif)]”, the binding result in data set [1] (low salt, 20 nM AID, label: 5'-Cy3 and 3'-biotin on anchor strand) is “binds”; in data set [1] (setting [4]) it was “binds”.
As to “CCCTACATCCATTCCTCGCGTTTTTTTTTTTTTTTAAUTTTTTTTTTTTTTTTTTTTTTTTTTTTTTTTTTTTTTTTTTTTTTTTTTTTTTT / CGCGAGGAATGGATGTAGGG [pdT 5' AAU (product motif)]”, in data set [1] (mean residence ~4 min, dU, 20 nM AID, label: 5'-Cy3 and 3'-biotin on anchor strand), the binding result is on record as “binds”.
Turning to “CCCTACATCCATTCCTCGCGTTTTTTTTTTTTTTTGACGACGACTTTTTTTTTTTTTTTTTTTTTTTTTTTTAACAGCAACTTTTTTTTTTT / CGCGAGGAATGGATGTAGGG [pdT 5' (GAC)3 3' (WRC)3]”, the binding result in data set [1] (setting [4]) is “binds”.
As to “CCCTACATCCATTCCTCGCGTTTTTTTTTTTTTTTGACTTTTTTTTTTTTTTTTTTTTTTTTTTTTTTTTTTTTTTTTTTTTTTTTTTTTTT / CGCGAGGAATGGATGTAGGG [pdT 5' GAC (non-hot motif)]”, the binding result in data set [1] (setting [4]) is given as “binds”.
On to “CCCTACATCCATTCCTCGCGTTTTTTTTTTTTTTTTTTTTTTTTTTTTTTTTTTTTTTTTTTTTTTTTTTTTTTTTTTTTTTTTTTTTTTTT / CGCGAGGAATGGATGTAGGG [pdT (no motif)]”, for which the binding result in data set [1] (setting [4]) is listed as “binds”.
As for “TTTCAGAGATGCATAATACGACTCACTATAGGGAGAAAAGGGGAAAGCAAAGAGGAAAGGTGAGGAGGT / ACCTCCTCACCTTTCCTCAAAAAAAACCCCTTTTCTCCCTATAGTGAGTCGTATTATGCATCTCTG [8-nt bubble dsDNA]”, the binding result in data set [1] (bound up to ~250 s, 20 nM AID, label: 5'-biotin strand 1, 5'-Cy3 strand 2) is recorded as “binds”.
Take “TTTCAGAGATGCATAATACGACTCACTATAGGGAGAAAAGGGGAAAGCAAAGAGGAAAGGTGAGGAGGT / ACCTCCTCACCTTTCCTCTTTGCTTTCCCCTTTTCTCCCTATAGTGAGTCGTATTATGCATCTCTG [69/66-mer T7 promoter dsDNA (promoter 39 bp from Cy3 end)]”: the binding result in data set [2] is given as “binds”; in data set [1] (no RNAP, 20 nM AID, 20 nM AID, label: 5'-biotin strand 1, 5'-Cy3 strand 2), “no binding”; in data set [3] (no NTPs, static promoter binding ~0.2 FRET), “binds”; in data set [3] (with NTPs, PB, MB and SB classes) it was “binds”.
